Measured values as given in paper PMC6506465.

Biological target: untagged NEURL1 (overexpressed) (rat (by the plasmid's name rNEURL1-pcDNA3))
Assay: co-IP; HEK293-FT cells expressing PDE9A-V5His with or without untagged NEURL1; precipitation with custom-raised polyclonal NEURL1 antibodies on Protein A sepharose; immunoblot with V5 antibody

binding: binds
B1: PDE9A-V5His (enzyme, UniProt Q8QZV1 1-534)
chain: MGAGSSSYRPKAIYLDIDGRIQKVVFSKYCNSSDIMDLFCIATGLPRNTTISLLTTDDAMVSIDPTMPANSERTPYKVRPVAVKQVSEREELVQGVLAQVAEQFSRAFKINELKAEVANHLAMLEKRVELEGLKVVEIEKCKSDIKKMREELAARNNRTNCPCKYSFLDNKKLTPRRDVPTYPKYLLSPETIEALRKPTFDVWLWEPNEMLSCLEHMYHDLGLVRDFSINPITLRRWLLCVHDNYRSNPFHNFRHCFCVTQMMYSMVWLCGLQEKFSQMDILVLMTAAICHDLDHPGYNNTYQINARTELAVRYNDISPLENHHCAIAFQILARPECNIFASVPPEGFRQIRQGMITLILATDMARHAEIMDSFKEKMENFDYSNEEHLTLLKMILIKCCDISNEVRPMEVAEPWVDCLLEEYFMQSDREKSEGLPVAPFMDRDKVTKATAQIGFIKFVLIPMFETVTKLFPIVEETMLRPLWESREHYEELKQLDDAMKELQKKTENLTSGATENAPEKTRDAKDNEDRSPPN

Results are given in words; binding and its absence hold for the method and conditions named. In cells and extracts the contact can be indirect. Binding calls can cover weak binding; strength is not graded here. Sequences can lack the tags named with a protein.
